Some of the results follow. The calls rarely recur for the same compound in another form.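 Kinases were expressed as nanoluciferase fusions in K562 cells and luminescence was read every 4 h between 2 and 18 h as percent of control, DMSO set to 100% and a positive control to 0%. A time point counts as decreased when the signal drops significantly (2 sigma). The hit call is the authors' own, does not follow from the count of time points alone, and its rule is not shown.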
These compounds were tested against LCK (UniProt P06239) (assay: kinase-Nluc reporter destabilization hit call (1 = scored as downregulated) (binary); higher = compound decreases kinase abundance). Settings: K562; 2-18 h.

Sequences of proteins named here, by UniProt entry; tags and fusion partners are left off. A change or cut given only in a name is not applied to a line headed by its entry.
UniProt P06239: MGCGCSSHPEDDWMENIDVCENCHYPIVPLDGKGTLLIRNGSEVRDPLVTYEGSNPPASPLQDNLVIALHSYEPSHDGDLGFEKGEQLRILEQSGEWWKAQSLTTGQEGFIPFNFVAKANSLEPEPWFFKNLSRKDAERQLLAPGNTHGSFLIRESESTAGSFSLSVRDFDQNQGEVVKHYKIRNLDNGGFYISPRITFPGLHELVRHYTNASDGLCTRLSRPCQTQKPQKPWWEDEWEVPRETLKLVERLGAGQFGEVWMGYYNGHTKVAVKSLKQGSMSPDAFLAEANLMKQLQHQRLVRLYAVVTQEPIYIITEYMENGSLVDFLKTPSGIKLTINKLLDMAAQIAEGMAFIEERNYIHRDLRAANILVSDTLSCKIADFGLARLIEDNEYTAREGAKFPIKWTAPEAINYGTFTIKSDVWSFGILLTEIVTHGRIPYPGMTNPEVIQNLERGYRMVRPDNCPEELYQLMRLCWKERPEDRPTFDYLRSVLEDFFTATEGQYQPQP

kinase-Nluc reporter destabilization hit call, inactive:
O=C(O)c1cc(N(Cc2ccccc2O)Cc2ccccc2O)ccc1O [Lavendustin B] (10 µM) 0
Cc1cnc(NC2CCOCC2)nc1-n1cnc(C(=O)N[C@H](CN)c2cc(F)cc(Cl)c2)c1 (10 µM) 0
Cn1ncc2cc(-c3cnc(N)c(Cl)c3N3CCC4(CCNC4=O)CC3)ccc21 (10 µM) 0
CC(C)c1cccc(C(C)C)c1N1C(=O)c2ccc(N)cc2C1=O (2.5 µM) 0
CC[C@@](C)(Nc1ccnc(-c2c[nH]c3ncccc23)n1)C(=O)NCC(F)(F)F [Decernotinib] (10 µM) 0
NC1=NCCN1CC(=O)O [Cyclocreatine] (10 µM) 0
Nc1c(C(=O)NCc2ccc(C(=O)NCCCC3CCCCC3)cc2)cnn1-c1ccccc1 (2.5 µM) 0
C[C@H](Nc1ncnc2nc[nH]c12)c1cc2cccc(Cl)c2c(=O)n1-c1ccccc1 [Duvelisib] (10 µM) 0
Cc1cc(Nc2nc(CC3(C(=O)O)CCN(C(=O)c4cccc(Cl)c4Cl)CC3)ccc2F)n[nH]1 (10 µM) 0
C[C@@H]1O[C@@H](O[C@@H]2[C@@H](O)[C@H](OCCc3ccc(O)c(O)c3)O[C@H](CO)[C@H]2OC(=O)/C=C/c2ccc(O)c(O)c2)[C@H](O)[C@H](O)[C@H]1O [Verbascoside] (10 µM) 0
O=C1/C(=C\c2ccc(Cl)cc2)C=C(c2ccccc2)N1c1ccc(O)cc1 (2.5 µM) 0
Nc1nccc(Oc2ccc(NC(=O)c3c[nH]cc(-c4ccc(F)cc4)c3=O)cc2F)c1Cl (10 µM) 0
COc1ccc(-c2c(C)nn3c(NCCN4CCOCC4)cc(C)nc23)cc1OC (10 µM) 0
O=C1NC(=O)C(c2cnc3ccccn23)=C1c1cn2c3c(cc(F)cc13)CNCC2 [GSK-3 inhibitor 1] (2.5 µM) 0
CCCCCCCC/C=C\CCCCCCCCCCCC(=O)O [Erucic acid] (10 µM) 0
O=C(Nc1nc2ccccc2[nH]1)c1cccc([N+](=O)[O-])c1 [IRAK-4 protein kinase inhibitor 2] (10 µM) 0
Cc1cccc(-c2[nH]c(C(C)(C)C)nc2-c2ccc3nccnc3c2)n1 (10 µM) 0
C[C@@H]1CC(=O)c2c(ccc3c2C(=O)c2cccc(O)c2C3=O)C1 [Ochromycinone] (10 µM) 0
CN1C(=O)[C@@H](NC(=O)c2n[nH]c(Cc3ccccc3)n2)COc2ccccc21 (10 µM) 0
CCc1cccc(CC)c1NC(=O)N1Cc2[nH]nc(NC(=O)c3ccc(N4CCN(C)CC4)cc3)c2C1 (2.5 µM) 0
COc1ccc(N=Nc2c(N)n[nH]c2N)cc1 (10 µM) 0
Cc1ccc(NC(=O)c2ccnc(C(F)(F)F)c2)cc1-c1cc(OCCO)nc(N2CCOCC2)c1 (10 µM) 0
CC(C)(O)[C@H]1CC[C@H](Nc2ccc3ncc(-c4cccc(C(F)(F)F)c4)n3n2)CC1 (10 µM) 0
CCn1c(=O)c(-c2cc[nH]n2)cc2c(C)nc(N)nc21 [Voxtalisib] (10 µM) 0
C[C@H](NC(=O)[C@H]1NCC[C@@H]1O)c1ccc(-c2noc(CCC3CCCC3)n2)cc1 (10 µM) 0
O=C1O[C@H]([C@@H](O)CO)C(O)=C1OP(=O)(O)O [2-Phospho-L-ascorbic acid (trisodium)] (10 µM) 0
Cn1cnc([N+](=O)[O-])c1C[N+](C)(C)C/C=C/C(=O)Nc1cc2c(Nc3ccc(Cl)c(Br)c3)ncnc2cn1 [Tarloxotinib (bromide)] (10 µM) 0
CC1(C)Cc2c(sc(NC(=S)NC(=O)c3ccccc3)c2C(=O)O)CO1 (10 µM) 0
CCCCCCCCCCCCCCCCOP(=O)([O-])OCC[N+](C)(C)C [Miltefosine] (10 µM) 0
N#CC(c1ccnc(OCc2ccc(CN3CCOCC3)cc2)n1)c1nc2ccccc2s1 (stereo not drawn) [Bentamapimod] (2.5 µM) 0
Cc1cnc(-c2ccc(-c3ccc(NC(=O)Nc4cccc(C(F)(F)F)c4)cc3F)c3c2C(=O)NC3)[nH]1 (10 µM) 0
CC(C)=CC(=O)O[C@H]1Cc2cc3ccc(=O)oc3cc2OC1(C)C [Decursin] (10 µM) 0
O=C(N[C@@H](C1CC1)C(F)(F)F)c1cc(-c2cnn3cc(-c4ccc(F)cc4)cnc23)cs1 (10 µM) 0
CNc1cc(Nc2cccn(-c3ccccn3)c2=O)nn2c(C(=O)N[C@@H]3C[C@@H]3F)cnc12 (2.5 µM) 0
CS(=O)(=O)c1ccc(-c2cnc(N)c(-c3ccc(C(F)(F)F)nc3)c2)cc1 (10 µM) 0
CN(c1ccc(NC(=O)Nc2ccc(OC(F)(F)F)cc2)cc1)c1ccnc(Nc2cccc(S(N)(=O)=O)c2)n1 (2.5 µM) 0
Cc1ccc2c(Nc3cccc(Cl)c3F)nccc2c1NC(=O)c1csc2c(N)ncnc12 [Belvarafenib] (10 µM) 0
COc1nn(C)cc1Nc1nccc(-c2c[nH]c3c(NC(=O)[C@@H](C)N4CCN(C)CC4)cccc23)n1 (10 µM) 0

As a working copy, part of the list above.
kinase-Nluc reporter destabilization hit call, inactive:
Cc1cccc(-c2[nH]c(C(C)(C)C)nc2-c2ccc3nccnc3c2)n1 (10 µM) 0
C[C@@H]1CC(=O)c2c(ccc3c2C(=O)c2cccc(O)c2C3=O)C1 [Ochromycinone] (10 µM) 0
CN1C(=O)[C@@H](NC(=O)c2n[nH]c(Cc3ccccc3)n2)COc2ccccc21 (10 µM) 0

Reference: the supplement of paper PMC12823440, “Inhibitors supercharge kinase turnover through native proteolytic circuits” (Nature, 2025)
